Measurements taken from publication PMC8007730.
No constants are given. Whether binding was seen depends on the method and setting. Some results given as binding are weak or reduced against the parent protein; the word gives no strength.

Molecular target: UXT purified from the UXT-eYFP-10×His construct (human) (UniProt Q9UBK9)
Assay: co-purification (Ni-NTA, then SEC) with western blot; UXT-eYFP-10×His expressed in HEK293E, Ni-NTA, HRV3C cleavage, second Ni-NTA, SEC; UXT-containing fractions near the void volume blotted with anti-UXT, anti-p62 and anti-LC3

endogenous p62 in HEK293E cells (from UniProt Q13501 1-440)
binding: binds
